A word on the Kd: it is the concentration at which binding is half-saturated.

The chains behind the UniProt entries cited, without tags or fusion partners. Where a name states a change or a piece, a line headed by the entry shows the natural chain unless it says otherwise.
UniProt Q9BYK8: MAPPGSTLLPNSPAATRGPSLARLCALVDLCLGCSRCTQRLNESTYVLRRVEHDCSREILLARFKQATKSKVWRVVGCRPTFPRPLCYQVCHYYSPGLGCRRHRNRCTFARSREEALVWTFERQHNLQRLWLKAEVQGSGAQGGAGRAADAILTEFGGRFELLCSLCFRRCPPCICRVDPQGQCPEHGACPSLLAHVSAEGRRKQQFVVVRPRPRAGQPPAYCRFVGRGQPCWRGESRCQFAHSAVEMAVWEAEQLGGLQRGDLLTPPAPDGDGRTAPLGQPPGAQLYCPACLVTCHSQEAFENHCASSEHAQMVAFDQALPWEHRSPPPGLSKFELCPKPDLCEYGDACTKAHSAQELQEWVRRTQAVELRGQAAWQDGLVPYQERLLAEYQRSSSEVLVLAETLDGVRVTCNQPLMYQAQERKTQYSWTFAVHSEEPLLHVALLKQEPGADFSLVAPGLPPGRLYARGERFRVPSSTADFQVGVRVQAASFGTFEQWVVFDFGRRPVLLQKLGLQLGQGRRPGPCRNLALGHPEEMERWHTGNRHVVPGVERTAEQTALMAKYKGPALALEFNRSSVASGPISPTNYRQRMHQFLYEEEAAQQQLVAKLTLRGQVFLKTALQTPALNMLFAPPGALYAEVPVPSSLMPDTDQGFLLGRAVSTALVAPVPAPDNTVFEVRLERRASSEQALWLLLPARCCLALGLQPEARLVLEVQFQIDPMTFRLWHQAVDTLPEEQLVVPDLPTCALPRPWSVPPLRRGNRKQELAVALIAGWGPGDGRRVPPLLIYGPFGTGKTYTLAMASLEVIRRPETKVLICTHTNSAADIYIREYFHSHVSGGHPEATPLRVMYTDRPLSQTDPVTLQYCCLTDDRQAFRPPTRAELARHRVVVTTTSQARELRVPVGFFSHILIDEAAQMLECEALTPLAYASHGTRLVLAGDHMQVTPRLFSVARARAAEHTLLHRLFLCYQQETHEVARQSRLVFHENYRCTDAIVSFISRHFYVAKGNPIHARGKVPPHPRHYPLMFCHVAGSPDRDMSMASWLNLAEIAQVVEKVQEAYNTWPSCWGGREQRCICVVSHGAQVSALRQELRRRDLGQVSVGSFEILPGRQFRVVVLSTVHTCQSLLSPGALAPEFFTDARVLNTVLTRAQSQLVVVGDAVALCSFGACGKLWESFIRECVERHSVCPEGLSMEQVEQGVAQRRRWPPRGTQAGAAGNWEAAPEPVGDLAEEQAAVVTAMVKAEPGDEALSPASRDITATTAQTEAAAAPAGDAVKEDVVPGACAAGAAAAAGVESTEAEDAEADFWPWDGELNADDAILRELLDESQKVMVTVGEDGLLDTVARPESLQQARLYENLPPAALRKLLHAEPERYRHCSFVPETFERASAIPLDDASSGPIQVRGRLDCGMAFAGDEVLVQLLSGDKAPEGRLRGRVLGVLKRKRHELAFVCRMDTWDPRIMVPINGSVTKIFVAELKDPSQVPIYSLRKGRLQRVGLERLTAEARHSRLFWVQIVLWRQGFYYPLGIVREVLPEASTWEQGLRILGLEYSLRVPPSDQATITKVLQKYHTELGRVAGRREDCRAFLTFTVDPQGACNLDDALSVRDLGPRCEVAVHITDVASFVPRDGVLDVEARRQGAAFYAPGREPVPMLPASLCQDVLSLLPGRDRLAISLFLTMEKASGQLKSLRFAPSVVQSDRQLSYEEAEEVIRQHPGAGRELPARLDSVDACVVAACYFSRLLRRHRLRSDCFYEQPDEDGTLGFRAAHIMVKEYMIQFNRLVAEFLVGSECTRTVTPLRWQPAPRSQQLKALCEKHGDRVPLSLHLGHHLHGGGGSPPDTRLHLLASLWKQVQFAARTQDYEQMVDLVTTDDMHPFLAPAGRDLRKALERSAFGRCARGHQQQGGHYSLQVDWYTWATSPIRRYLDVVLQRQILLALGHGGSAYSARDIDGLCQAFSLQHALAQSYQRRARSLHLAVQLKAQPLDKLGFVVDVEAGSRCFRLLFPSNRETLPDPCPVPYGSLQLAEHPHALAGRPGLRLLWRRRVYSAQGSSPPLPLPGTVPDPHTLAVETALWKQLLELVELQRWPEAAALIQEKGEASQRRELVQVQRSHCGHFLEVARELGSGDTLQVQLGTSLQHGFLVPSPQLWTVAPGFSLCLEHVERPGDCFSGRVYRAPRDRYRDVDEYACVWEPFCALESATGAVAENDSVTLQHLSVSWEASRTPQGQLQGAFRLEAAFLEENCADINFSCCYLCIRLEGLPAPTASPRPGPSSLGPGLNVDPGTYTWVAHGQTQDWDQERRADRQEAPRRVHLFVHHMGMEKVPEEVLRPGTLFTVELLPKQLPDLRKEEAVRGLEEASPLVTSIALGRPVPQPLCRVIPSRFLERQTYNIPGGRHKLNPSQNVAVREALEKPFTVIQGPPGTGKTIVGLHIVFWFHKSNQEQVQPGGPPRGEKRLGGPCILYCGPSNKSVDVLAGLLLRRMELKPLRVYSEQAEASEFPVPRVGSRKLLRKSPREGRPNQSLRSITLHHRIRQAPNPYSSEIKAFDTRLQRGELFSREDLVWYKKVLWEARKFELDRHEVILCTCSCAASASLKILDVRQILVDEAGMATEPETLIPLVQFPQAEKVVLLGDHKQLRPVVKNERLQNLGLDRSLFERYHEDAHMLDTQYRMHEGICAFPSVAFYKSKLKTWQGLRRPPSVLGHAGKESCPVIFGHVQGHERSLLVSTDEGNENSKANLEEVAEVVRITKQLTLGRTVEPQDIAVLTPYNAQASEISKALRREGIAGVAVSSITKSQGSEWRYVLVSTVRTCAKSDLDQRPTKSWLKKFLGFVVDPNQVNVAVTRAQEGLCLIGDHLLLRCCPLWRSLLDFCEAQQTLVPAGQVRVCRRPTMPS

The structures appear in SMILES notation. Structures can show the parent of a compound that is named as a salt.

From US20210330616A1, “AMELIORATING AGENT FOR OBESITY-RELATED METABOLIC DISEASE” (METABOLIC AND OBESE RESEARCH SCIENCE CORPORATION, priority 2018, published 2021) come the findings set out here.

The assay addresses T1, Helz2 (Homo sapiens, UniProt Q9BYK8).
T1 construct: 3xFLAG (N); made in house; host or cells: HEK293 cells
In words: High-throughput screening through surface plasmon resonance for low-molecular-weight compounds that bind to Helz2. The note with it: purified Helz2 protein, read-out: KD value for binding to and dissociating from Helz2. From the text:
1. High-Throughput Screening for Low-Molecular-Weight Compounds that Bind to Helz2
HEK293 cells were allowed to express Helz2 by using a Helz2 expression vector (p3×FLAG-CMV10-pDIP2), and Helz2 protein was purified.
A general note: Surface plasmon resonance follows binding to a sensor surface in real time, without labels.

As for `CN1CCC[C@@H]1CCO[C@](C)(c1ccccc1)c1ccc(Cl)cc1` [clemastine fumarate], the dissociation constant Kd was 1 to 490 nM.
